Our source for the binding values is PMC5339883.

No constants are given. Whether binding was seen depends on the method and setting. Where a sequence is shown, tags or fusion partners need not be part of it.

The target in test [1] is T1, GST-tagged Rab17 (wild type) (UniProt Q9H0T7).
T1 sequence: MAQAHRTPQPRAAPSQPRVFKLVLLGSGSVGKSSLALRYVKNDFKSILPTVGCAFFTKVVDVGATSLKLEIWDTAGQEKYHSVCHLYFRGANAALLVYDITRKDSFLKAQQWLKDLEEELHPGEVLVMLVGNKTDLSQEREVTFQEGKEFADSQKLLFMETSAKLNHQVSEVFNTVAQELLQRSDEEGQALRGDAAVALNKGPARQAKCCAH
Kind of test: pull-down; GST–Rab17 constructs on glutathione beads; equal quantities of Vamp8 and Rab17 incubated for 16 h at 4°C; beads washed twice with PBS; NuPAGE gel, Coomassie stain; both purified.

The target in another test is T2, GST–Rab17Q77L (UniProt Q9H0T7).
T2 sequence: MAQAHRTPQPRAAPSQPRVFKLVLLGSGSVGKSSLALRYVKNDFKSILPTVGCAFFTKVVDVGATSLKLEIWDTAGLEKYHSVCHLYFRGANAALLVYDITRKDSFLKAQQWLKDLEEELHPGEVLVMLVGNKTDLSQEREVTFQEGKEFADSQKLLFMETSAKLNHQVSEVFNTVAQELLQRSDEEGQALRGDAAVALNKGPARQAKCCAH
The description is as above.

B1: cytoplasmic region of Vamp8 (domain or fragment, UniProt Q9BV40 1-74)
chain: MEEASEGGGNDRVRNLQSEVEGVKNIMTQNVERILARGENLEHLRNKTEDLEATSEHFKTTSQKVARKFWWKNV
For B1, the binding entry (in test [1]; with GST–Rab17Q77L) was “no binding” throughout.
